No constants are given. Whether binding was seen depends on the method and setting. Binding seen in cells or lysates may run through a third protein. A result given as binding can be weak or reduced; the word gives no strength. Sequences can lack the tags named with a protein.
Target: T1, MIM-3xFLAG (Mus musculus) (UniProt Q8R1S4)
T1 sequence: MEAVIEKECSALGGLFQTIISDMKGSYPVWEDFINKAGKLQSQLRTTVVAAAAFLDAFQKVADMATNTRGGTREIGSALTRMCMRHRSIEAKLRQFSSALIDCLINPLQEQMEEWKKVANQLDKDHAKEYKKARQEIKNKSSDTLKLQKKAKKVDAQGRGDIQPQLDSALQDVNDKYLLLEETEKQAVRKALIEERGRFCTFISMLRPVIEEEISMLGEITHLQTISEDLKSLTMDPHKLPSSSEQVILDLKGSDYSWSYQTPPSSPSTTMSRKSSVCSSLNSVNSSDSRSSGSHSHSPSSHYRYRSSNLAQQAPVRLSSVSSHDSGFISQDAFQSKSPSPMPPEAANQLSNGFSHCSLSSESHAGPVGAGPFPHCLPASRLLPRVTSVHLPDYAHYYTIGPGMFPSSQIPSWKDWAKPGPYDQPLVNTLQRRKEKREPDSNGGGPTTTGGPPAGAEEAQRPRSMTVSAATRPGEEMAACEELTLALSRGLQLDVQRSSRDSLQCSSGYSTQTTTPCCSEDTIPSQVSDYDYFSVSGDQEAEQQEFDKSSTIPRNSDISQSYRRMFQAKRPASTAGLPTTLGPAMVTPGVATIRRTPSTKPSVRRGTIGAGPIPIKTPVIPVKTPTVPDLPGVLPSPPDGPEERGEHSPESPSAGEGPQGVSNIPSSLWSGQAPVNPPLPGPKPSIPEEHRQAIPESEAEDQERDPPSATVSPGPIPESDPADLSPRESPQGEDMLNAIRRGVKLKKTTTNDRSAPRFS
Test: co-IP; HEK293T co-transfected with MIM-3xFLAG and EVL constructs; IP with anti-FLAG antibody, Protein A/G beads; IP buffer 10% glycerol, 1% NP-40, 50 mM Tris pH 7.5, 200 mM NaCl, 2 mM MgCl2; overnight at 4°C; western blot

By UniProt entry, the sequences of proteins in these tests, tags left out. Where a name states a change or a piece, a line headed by the entry shows the natural chain unless it says otherwise.
UniProt P70429: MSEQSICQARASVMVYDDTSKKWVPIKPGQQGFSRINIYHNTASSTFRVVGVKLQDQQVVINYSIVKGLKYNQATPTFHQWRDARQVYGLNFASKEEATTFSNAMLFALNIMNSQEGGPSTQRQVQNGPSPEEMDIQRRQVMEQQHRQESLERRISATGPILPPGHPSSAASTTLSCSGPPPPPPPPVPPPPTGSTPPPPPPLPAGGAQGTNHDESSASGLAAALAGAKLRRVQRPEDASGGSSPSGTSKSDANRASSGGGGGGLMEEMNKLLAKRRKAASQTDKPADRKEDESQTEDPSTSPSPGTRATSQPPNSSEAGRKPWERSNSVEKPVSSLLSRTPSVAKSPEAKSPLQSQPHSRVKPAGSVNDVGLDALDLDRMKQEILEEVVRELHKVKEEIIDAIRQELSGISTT

| Substance | binding |
| --- | --- |
| EVL ΔEVH1 mutant (Mus musculus) (domain or fragment) | no binding |
| EVL mutant lacking the proline-rich domain (ΔPRD) (from UniProt P70429) | binds |
